Reference: US20230130403A1, “METHODS OF TREATMENT WITH S1P RECEPTOR MODULATORS” (PRIOTHERA SAS, priority 2021, published 2023)
At least one structure is not confirmed: it was looked up by name or label, or the drawing left a doubt.

Assays:
chronic GVHD = experiment: Murine model of cutaneous chronic GVHD (B10.D2 into Balb/c); type: in vivo, mouse
[1] = tested on: patients undergoing allogeneic HSCT for hematological malignancies; experiment: Study CKRP203A2105, phase Ib in patients undergoing allogeneic HSCT;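 also: counts of subjects, HLA-matched donor stem cells, transplant on Day 11 following myeloablative chemotherapy conditioning from Day 2 to Day 10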
[2] = tested on: patients with hematological malignancies; details: short-term administration; cited from earlier work
[3] = tested on: patients suffering from hematological malignancies; experiment: Comparison of A2105 mocravimod data with real-world control data (Example 9); type: in vivo, human
[4] = tested on: acute GVHD after allogeneic HSCT; details: cited from earlier work
[5] = tested on: VEGF-induced vascular leakage; experiment: VEGF-induced vascular leakage model; details: in vivo
CD4+ T cells = experiment: Apoptosis of CD4+ T cells in vitro; type: cell-based; details: therapeutic concentrations in vitro

SMILES: NC(CO)(CO)CCc1ccc(Sc2cccc(OCc3ccccc3)c2)cc1Cl [KRP203, 2-amino-2-[4-(3-benzyloxyphenylthio)-2-chlorophenyl] ethyl-propane-1,3-diol]
- chronic GVHD skin pathology (chronic GVHD; 3 mg/kg prophylactic from day −1, day 0 to 42, FIG. 4A): did not show any chronic GVHD-caused pathological skin changes
- Schirmer test, aqueous tear production (chronic GVHD; day 42, prophylactic treatment, FIG. 4B): improved this condition
- prevention of development of chronic GVHD (chronic GVHD; treatment from day −1 to 42): efficient to prevent development of chronic GVHD
- incidence of relapse ([1]; 3 mg KRP203 and Ciclosporin A compared to 3 mg KRP203 and Tacrolimus or 1 mg KRP203 and Ciclosporin A): lower
- incidence of mild chronic GVHD ([1]; 3 mg KRP203 and Ciclosporin A compared to 3 mg KRP203 and Tacrolimus or 1 mg KRP203 and Ciclosporin A, FIG. 1): decreases
- onset of moderate chronic GVHD ([1]; 3 mg KRP203 and Ciclosporin A compared to the other treatment groups, FIG. 3): delayed
- CD4+ and ALC counts reduction ([1]; modelling and simulation analysis): maximum or near-maximum cell count reduction
- CD8+ T-cell count reduction ([1]; modelling and simulation analysis, 3-mg dose given with SOC plus CsA): more pronounced CD8+ T-cell count reduction
- risk of acute GVHD [2]: significantly reduced risk of acute GVHD
- survival of patients with hematological malignancies [2]: improved the survival
- high-risk patients (females with male donors) with severe chronic GVHD ([3]; Mocravimod arm, two of the Control patients had an event): None
- severe chronic GVHD versus control ([3]; all A2105 patients (n=23) versus site control (n=69), FIG. 8): marked trend
- relapse/progression rate versus CIBMTR control data ([3]; all A2105 patients (n=23), all diseases, FIG. 6): better relapse/progression rate
- relapse/progression after excluding patients who stopped treatment early not due to relapse ([3]; n=17, FIG. 7): improves the relapse/progression numbers near the end of the curve
- effect on acute GVHD ([4]; preclinical, after allogeneic HSCT): ameliorated acute GVHD
- apoptosis of donor T cells ([4]; short-term administration of KRP203 alone): induced apoptosis of donor T cells in the secondary lymphoid organs
- effect in VEGF-induced vascular leakage model [5]: vasoprotective (barrier-protective)
- induction of apoptosis of CD4+ T cells (CD4+ T cells): nor induces apoptosis of CD4+ T cells
